Laboratory results published in patent US20200276273A1, “METHOD FOR TREATING MYELOID LEUKEMIA” (UNIVERSITY OF MIAMI, priority 2017, published 2020).
Part of at least one peptide drawing is inferred or uncertain, most often the ends. Non-standard residues stand in square brackets, D forms with d. Residues, ends and D or L forms follow the SMILES beside them. *: point of attachment. Phe(F5) = N[C@@H](Cc1c(F)c(F)c(F)c(F)c1F)C(=O)O; hArg = N=C(N)NCCCC[C@H](N)C(=O)O; 12Ado = NCCCCCCCCCCCC(=O)O; Nle = CCCC[C@H](N)C(=O)O; Orn = NCCC[C@H](N)C(=O)O; Abu = CC[C@H](N)C(=O)O; PhAc = O=C(Cc1ccccc1)*

Key:
THP-1 cells [1] = experiment: Cell proliferation study (MOXI cell counter), THP-1; type: cell-based, human; conditions: THP-1, 5 μM
KG1 cells = experiment: Apoptosis assay (TUNEL), KG1; type: cell-based, human; conditions: KG1, 5 μmol/l, 48-h treatment; control 1%
K-562 cells [2] = experiment: RT2 Profiler PCR Array Human Cell Death Pathway Finder, K-562; type: cell-based; conditions: K-562, 5 μM, 24 hours, qPCR
THP-1 tumors = experiment: THP-1 xenograft in athymic nude mice; type: in vivo; conditions: 10 μg B.i.d. s.c., 30 days
KG-1a cells [3] = experiment: Cell proliferation study (MOXI cell counter), KG-1a; type: cell-based, human; conditions: 5 μM
KG-1 cells [4] = experiment: Western blot protein expression (Akt phosphorylation, cleaved caspase 3), KG-1; type: cell-based, human; conditions: KG-1, 5 μM
KG-1 cells [5] = experiment: Cell proliferation study (MOXI cell counter), KG-1; type: cell-based, human; conditions: KG-1 (GHRH-R-negative)
THP-1 cells [6] = experiment: Western blot protein expression (Akt phosphorylation, cleaved caspase 3), THP-1; type: cell-based, human; conditions: THP-1, 5 μM
KG-1a cells [7] = experiment: Western blot protein expression (Akt phosphorylation, cleaved caspase 3), KG-1a; type: cell-based, human; conditions: 5 μM
THP-1 cells [8] = experiment: Apoptosis assay (TUNEL), THP-1; type: cell-based, human; conditions: THP-1, 5 μmol/l, 48-h treatment; untreated 2%
THP-1 cells [9] = experiment: RT2 Profiler PCR Array Human Cell Death Pathway Finder, THP-1; type: cell-based; conditions: THP-1, 5 μM, 24 hours, qPCR
K-562 cells [10] = experiment: Western blot protein expression (Akt phosphorylation, cleaved caspase 3), K-562; type: cell-based, human; conditions: K-562, 5 μM
KG-1 tumors = experiment: KG-1 xenograft in athymic nude mice (negative control); type: in vivo; conditions: KG-1 xenograft (negative control), 10 μg B.i.d. s.c., 30 days
KG-1a cells [11] = experiment: RT2 Profiler PCR Array Human Cell Death Pathway Finder, KG-1a; type: cell-based; conditions: 5 μM, 24 hours
KG-1a tumors = experiment: KG-1a xenograft in athymic nude mice; type: in vivo; conditions: 10 μg B.i.d. s.c., 30 days
K-562 tumors = experiment: K-562 xenograft in athymic nude mice; type: in vivo; conditions: 10 μg B.i.d. s.c., 30 days
KG-1 cells [12] = experiment: RT2 Profiler PCR Array Human Cell Death Pathway Finder, KG-1; type: cell-based; conditions: KG-1, 24-hour treatment, qPCR
K-562 cells [13] = experiment: Cell proliferation study (MOXI cell counter), K-562; type: cell-based, human; conditions: K-562, 5 μM
[14] = test system: gastric cancer cell lines and xenografted tumors; conditions: Gan et al., PNAS 2016; cited from earlier work

Structure (SMILES): CCCC[C@H](NC(=O)[C@@H](NC(=O)[C@H](CC(=O)O)NC(=O)[C@H](CCC(N)=O)NC(=O)[C@H](CC(C)C)NC(=O)[C@H](CC(C)C)NC(=O)[C@H](CCCN)NC(=O)[C@H](Cc1c[nH]cn1)NC(=O)[C@H](C)NC(=O)[C@H](CO)NC(=O)[C@H](CC(C)C)NC(=O)[C@H](CCC(N)=O)NC(=O)[C@H](CC)NC(=O)[C@H](CC(C)C)NC(=O)[C@@H](NC(=O)[C@H](CCCN)NC(=O)[C@H](Cc1c[nH]cn1)NC(=O)[C@H](Cc1ccc(OC)cc1)NC(=O)[C@H](CCCCNC(=N)N)NC(=O)[C@H](C)NC(=O)[C@@H](NC(=O)[C@H](Cc1c(F)c(F)c(F)c(F)c1F)NC(=O)[C@@H](NC(=O)[C@H](C)NC(=O)[C@H](CC(=O)O)NC(=O)[C@@H](CCCNC(=N)N)NC(=O)[C@H](Cc1ccc(O)cc1)NC(=O)CCCCCCCCCCCNC(=O)Cc1ccccc1)[C@@H](C)CC)[C@@H](C)O)C(C)C)[C@@H](C)CC)C(=O)N[C@H](CCCNC(=N)N)C(=O)N[C@@H](CCCCNC(=N)N)C(N)=O [MIA-602, [PhAc-Ada^0-Tyr^1, D-Arg^2, Fpa5^6, Ala^8, Har^9, Tyr(Me)^10, His^11, Orn^12, Abu^15, His^20, Orn^21, Nle^27, D-Arg^28, Har^29]hGH-RH(1-29)NH2] ({PhAc-12Ado}-Y[dR]DAI[Phe(F5)]TA[hArg]Y(Me)H[Orn]VL[Abu]QLSAH[Orn]LLQDI[Nle][dR][hArg]-NH2)
- reduction in cell proliferation (THP-1 cells [1]; 24 hours): 32.7%
- reduction in cell proliferation (THP-1 cells [1]; 48 hours): 50.4%
- percentage of apoptotic cells (TUNEL) (KG1 cells): 12%
- TNF expression upregulation (K-562 cells [2]): 2.16 fold
- tumor doubling time (THP-1 tumors): prolonged
- decrease of final tumor volume (THP-1 tumors; P<0.05): 42%
- decrease in cell proliferation (KG-1a cells [3]; 24 hours): over 50%
- decrease in cell proliferation (KG-1a cells [3]; 48 hours): approximately 80%
- changes in Akt phosphorylation and cleaved caspase 3 (KG-1 cells [4]): None of these changes were found
- cell growth (KG-1 cells [5]; 24 hours): not changed
- cell growth (KG-1 cells [5]; 48 hours): only slightly decreased
- decrease in phosphorylation of Akt (THP-1 cells [6]; 8 h incubation): 16%
- cleaved caspase 3 (THP-1 cells [6]; Western blot): increase
- decrease in phosphorylation of Akt (KG-1a cells [7]; 8 h incubation): 85%
- cleaved caspase 3 (KG-1a cells [7]; Western blot): increase
- percentage of apoptotic cells (TUNEL) (THP-1 cells [8]): 51%
- CASP9 expression increase (THP-1 cells [9]): 2.08 fold
- CD40LG expression increase (THP-1 cells [9]): 3.72 fold
- HTT expression increase (THP-1 cells [9]): 2.25 fold
- MCL1 expression increase (THP-1 cells [9]): 2.15 fold
- decrease in phosphorylation of Akt (K-562 cells [10]; 8 h incubation): 100%
- cleaved caspase 3 (K-562 cells [10]; Western blot): increase
- tumor volume (KG-1 tumors): no changes
- IFNG expression upregulation (KG-1a cells [11]; qPCR): 28.87 fold
- number of death-related genes with significant change in expression level (≥2 fold; p<0.05) (KG-1a cells [11]; panel of 84 genes): 16 genes
- tumor doubling time (KG-1a tumors): prolonged
- decrease of final tumor volume (KG-1a tumors; P<0.05): 41%
- tumor doubling time (K-562 tumors): prolonged
- decrease of final tumor volume (K-562 tumors; P<0.05): 54%
- BIRC3 expression increase (KG-1 cells [12]): 4.64 fold
- TNF expression increase (KG-1 cells [12]): 4.11 fold
- decrease in cell proliferation (K-562 cells [13]; 24 hours): over 50%
- decrease in cell proliferation (K-562 cells [13]; 48 hours): approximately 80%
- Pak1-mediated expression of both pSTAT3 and p65 [14]: decrease
